Test results from patent US20230301988A1 (priority 2020, published 2023).
Strings that start with PEPTIDE1 are HELM notation: dots part the residues, brackets hold end groups and non-standard residues.

Test: general procedure: Fmoc solid-phase peptide synthesis; Rink Amide AM resin (Novabiochem, 0.73 mmol/g); COMU/DIPEA
Conditions: whole synthesis, formic acid salt

In the case of “PEPTIDE1{[Abz].S.A.V.L.Q.S.G.F.R.[Lys(DNP)].[am]}$$$$V2.0”, the “final purity (method not given)” value (UV 350 nm, scale of the general procedure 200 umol) is reported as ≥95%, the isolated mass is reported as 42.4 mg and the isolated yield (scale of the general procedure 200 umol) is reported as 29.2%.
